Source: paper PMC5963799
No constants are given. Whether binding was seen depends on the method and setting. In cells and extracts the contact can be indirect. Some results given as binding are weak or reduced against the parent protein; the word gives no strength.

By UniProt entry, the sequences of proteins in these tests, tags left out. Where a name states a change or a piece, a line headed by the entry shows the natural chain unless it says otherwise.
UniProt Q7Z434: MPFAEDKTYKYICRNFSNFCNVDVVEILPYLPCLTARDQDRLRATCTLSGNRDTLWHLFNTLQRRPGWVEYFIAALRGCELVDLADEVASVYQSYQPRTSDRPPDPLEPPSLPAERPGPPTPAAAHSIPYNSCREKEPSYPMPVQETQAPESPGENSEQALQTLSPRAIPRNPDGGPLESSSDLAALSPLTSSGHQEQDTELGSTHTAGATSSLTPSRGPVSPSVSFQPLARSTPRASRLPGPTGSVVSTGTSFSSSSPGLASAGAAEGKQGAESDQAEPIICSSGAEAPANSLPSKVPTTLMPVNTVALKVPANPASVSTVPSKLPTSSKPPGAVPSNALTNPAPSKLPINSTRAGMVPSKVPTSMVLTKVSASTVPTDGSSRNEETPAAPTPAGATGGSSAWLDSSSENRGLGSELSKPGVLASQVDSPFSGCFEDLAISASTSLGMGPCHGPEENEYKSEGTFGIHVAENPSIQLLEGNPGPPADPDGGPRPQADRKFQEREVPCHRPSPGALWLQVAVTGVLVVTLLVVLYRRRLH
UniProt F5HEZ4: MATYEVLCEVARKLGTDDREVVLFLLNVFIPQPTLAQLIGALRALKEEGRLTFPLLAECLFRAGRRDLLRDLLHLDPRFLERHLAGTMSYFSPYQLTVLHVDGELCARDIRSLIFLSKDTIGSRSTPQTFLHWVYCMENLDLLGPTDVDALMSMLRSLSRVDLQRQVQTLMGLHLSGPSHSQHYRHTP

Target: Flag-MAVS full-length (FL) (UniProt Q7Z434)
Assay: co-IP; extracts of 293T cells transfected with Flag-MAVS and GST, GST-vFLIP, GST-DED1, GST-DED2 or GST-vFLIP helices; co-immunoprecipitated with MAVS (Fig 9A-B)

Substance | binding
GST-DED1 (vFLIP residues 1–90) (from UniProt F5HEZ4 1-90) (domain or fragment) | binds
GST-DED2 (vFLIP residues 85–188) (from UniProt F5HEZ4 85-188) (domain or fragment) | binds
